In publication PMC6763495:
These are yes or no findings as the source states them, for the method shown. In cells and extracts the contact can be indirect. Some binding calls cover weakened binding; strength is not graded here. Tags and fused reporters may be left off the sequences shown.

Chains of the proteins cited; added tags and fusions are not shown.
UniProt P08151: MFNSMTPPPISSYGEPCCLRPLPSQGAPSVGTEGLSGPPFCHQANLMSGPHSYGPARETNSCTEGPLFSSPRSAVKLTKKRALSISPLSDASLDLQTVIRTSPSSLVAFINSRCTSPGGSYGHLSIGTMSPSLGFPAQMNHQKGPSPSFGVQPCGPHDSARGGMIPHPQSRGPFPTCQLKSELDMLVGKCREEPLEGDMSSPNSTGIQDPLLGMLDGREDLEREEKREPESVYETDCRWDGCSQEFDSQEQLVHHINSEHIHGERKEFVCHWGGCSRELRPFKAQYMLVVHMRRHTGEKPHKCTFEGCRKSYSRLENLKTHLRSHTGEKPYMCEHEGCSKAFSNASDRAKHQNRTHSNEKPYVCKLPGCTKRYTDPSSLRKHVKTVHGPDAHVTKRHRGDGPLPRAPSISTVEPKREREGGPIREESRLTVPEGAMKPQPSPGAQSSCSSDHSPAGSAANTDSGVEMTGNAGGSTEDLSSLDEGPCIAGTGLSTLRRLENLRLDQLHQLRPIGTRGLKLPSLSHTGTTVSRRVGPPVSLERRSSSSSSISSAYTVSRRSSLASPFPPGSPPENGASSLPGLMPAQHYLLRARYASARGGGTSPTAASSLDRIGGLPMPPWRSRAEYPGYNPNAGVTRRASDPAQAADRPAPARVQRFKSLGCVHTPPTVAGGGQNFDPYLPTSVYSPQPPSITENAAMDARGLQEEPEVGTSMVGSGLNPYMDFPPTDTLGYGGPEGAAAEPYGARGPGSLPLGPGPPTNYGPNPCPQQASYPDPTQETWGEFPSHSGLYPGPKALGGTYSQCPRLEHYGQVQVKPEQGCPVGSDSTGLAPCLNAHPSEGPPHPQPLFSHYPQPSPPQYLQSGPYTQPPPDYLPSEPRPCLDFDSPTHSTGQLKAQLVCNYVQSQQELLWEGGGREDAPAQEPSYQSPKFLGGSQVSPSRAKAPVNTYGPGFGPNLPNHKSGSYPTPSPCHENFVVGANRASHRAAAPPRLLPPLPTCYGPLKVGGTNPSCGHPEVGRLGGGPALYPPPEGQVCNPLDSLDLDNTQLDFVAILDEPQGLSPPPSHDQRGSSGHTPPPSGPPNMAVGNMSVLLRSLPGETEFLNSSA
UniProt Q13547: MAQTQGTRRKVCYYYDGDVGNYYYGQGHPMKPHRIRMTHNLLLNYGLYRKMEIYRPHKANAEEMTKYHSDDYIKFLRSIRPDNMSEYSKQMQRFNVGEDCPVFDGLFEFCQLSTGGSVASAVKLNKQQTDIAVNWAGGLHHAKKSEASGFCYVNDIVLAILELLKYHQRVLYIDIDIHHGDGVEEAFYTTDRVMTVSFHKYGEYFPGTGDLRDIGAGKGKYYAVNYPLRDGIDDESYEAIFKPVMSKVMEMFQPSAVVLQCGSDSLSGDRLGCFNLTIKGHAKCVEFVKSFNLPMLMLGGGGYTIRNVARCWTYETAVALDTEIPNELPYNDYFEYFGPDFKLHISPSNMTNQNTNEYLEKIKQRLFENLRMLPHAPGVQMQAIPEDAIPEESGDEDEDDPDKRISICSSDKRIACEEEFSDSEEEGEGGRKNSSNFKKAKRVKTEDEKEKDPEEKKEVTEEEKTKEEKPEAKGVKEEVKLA

How the values were obtained:
ZNF521-DDK-Flag (human) [1] = target: T1, ZNF521-DDK-Flag (human) (UniProt Q96K83); assay: co-IP; ChIP samples: transfected 293T cells cross-linked with 1% formaldehyde, nuclei sonicated, IP with anti-Flag-M2 and Protein G Sepharose; proteins in the IP analysed by Western blot (Fig. 3d)
T1 sequence: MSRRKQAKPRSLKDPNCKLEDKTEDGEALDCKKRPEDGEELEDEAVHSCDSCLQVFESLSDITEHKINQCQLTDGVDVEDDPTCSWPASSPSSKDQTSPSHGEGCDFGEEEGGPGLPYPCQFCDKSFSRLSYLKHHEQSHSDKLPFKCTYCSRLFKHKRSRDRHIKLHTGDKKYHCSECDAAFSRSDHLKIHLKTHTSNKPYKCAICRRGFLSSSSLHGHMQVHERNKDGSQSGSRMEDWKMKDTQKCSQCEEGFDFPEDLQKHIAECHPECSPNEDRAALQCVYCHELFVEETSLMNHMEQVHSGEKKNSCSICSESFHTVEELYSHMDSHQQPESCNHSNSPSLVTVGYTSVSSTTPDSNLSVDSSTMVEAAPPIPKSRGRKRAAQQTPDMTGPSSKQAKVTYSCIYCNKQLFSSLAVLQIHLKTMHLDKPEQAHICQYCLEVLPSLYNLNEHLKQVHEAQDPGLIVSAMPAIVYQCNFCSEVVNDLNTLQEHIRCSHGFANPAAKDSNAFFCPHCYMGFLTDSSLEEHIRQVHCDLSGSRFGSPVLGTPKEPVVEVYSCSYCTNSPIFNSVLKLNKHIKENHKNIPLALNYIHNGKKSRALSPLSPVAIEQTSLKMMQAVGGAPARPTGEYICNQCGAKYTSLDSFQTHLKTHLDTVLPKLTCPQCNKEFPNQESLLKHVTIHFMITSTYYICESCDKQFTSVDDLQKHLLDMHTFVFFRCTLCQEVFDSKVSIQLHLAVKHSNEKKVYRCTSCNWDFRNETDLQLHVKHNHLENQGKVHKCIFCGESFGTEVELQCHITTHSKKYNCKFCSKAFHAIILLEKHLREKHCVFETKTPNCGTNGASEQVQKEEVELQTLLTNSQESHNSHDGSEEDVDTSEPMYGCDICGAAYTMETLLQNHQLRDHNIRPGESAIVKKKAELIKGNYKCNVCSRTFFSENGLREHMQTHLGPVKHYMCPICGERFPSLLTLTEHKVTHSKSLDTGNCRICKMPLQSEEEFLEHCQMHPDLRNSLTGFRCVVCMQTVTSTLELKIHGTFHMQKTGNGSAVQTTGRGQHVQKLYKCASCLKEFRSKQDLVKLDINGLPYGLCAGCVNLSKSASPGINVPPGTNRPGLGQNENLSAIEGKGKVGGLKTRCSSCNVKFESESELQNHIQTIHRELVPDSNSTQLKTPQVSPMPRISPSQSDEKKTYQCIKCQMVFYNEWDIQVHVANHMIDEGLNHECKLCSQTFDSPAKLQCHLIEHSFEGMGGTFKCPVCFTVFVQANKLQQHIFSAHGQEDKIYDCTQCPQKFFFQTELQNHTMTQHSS

ZNF521-DDK-Flag (human) [2] = target: T1, ZNF521-DDK-Flag (human); assay: co-IP; HEK293T co-transfected, lysed 48 h later in IP buffer (50 mM Tris/HCl pH 7.5, 250 mM NaCl, 0.1% Triton X-100, ZnCl2); IP of the Flag/DDK-tagged protein with anti-Flag-M2 and Protein G Sepharose overnight at 4 °C; Western blot; in Fig. 5a increasing amounts of the co-transfected partner

| binding (ZNF521-DDK-Flag (human) [1]) | binding (ZNF521-DDK-Flag (human) [2]) | Substance |
| --- | --- | --- |
| binds | binds | 3xHA-GLI1 (from UniProt P08151 1-1106) |
| – | binds | histone deacetylase 1 (HDAC1) (from UniProt Q13547 1-482) (enzyme) |
